Here are results for 2 molecules from publication PMC6394298.

By UniProt entry, the sequences of proteins in these tests, tags left out. Where a name states a change or a piece, a line headed by the entry shows the natural chain unless it says otherwise. Chains listed by the source or under a name are the forms on record and can include a tag or linker.
His6-tagged wild-type paxillin (mouse paxillin-α) (Q8VI36, form named): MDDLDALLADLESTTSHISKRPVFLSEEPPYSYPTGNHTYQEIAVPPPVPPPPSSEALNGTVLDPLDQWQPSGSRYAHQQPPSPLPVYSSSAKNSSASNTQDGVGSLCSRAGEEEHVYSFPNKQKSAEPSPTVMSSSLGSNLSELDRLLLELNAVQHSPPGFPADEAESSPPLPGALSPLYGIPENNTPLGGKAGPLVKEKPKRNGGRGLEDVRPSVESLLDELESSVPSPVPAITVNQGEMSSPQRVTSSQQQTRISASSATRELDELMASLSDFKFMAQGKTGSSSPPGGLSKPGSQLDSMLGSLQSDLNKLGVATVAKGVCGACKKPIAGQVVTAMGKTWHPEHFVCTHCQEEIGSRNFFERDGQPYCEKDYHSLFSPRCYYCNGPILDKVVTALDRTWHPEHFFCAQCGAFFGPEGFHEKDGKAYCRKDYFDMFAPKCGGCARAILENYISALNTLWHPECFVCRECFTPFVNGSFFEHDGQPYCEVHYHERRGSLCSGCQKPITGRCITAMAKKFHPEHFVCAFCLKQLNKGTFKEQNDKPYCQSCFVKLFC

Results are given in words; binding and its absence hold for the method and conditions named. Binding seen in cells or lysates may run through a third protein. Some entries that bind do so weakly or less than the wild type.

This test has as its target His6-tagged wild-type paxillin (mouse paxillin-α) (mouse) (UniProt Q8VI36). As to the kind of experiment: pull-down; His6-tagged paxillin (WT, S273A, S273D) or His6-tagged DDX42 (WT, D407A) overexpressed in Ba/F3 cells, precipitated from the lysate with Ni-NTA agarose beads; co-precipitated endogenous proteins detected by western blot (anti-DDX42, anti-GIT1, anti-paxillin); mock-transfected and parental cells as controls. On the technique in general: In western blotting, separated proteins are transferred to a membrane and probed.

B1: ATP-dependent RNA helicase DDX42 (protein, UniProt Q810A7 1-929)
chain: MNWNKGGPGTKRGFGFGGFAISAGKKEEAKLPQQSHSAFGAASSSSGFGKSAPPQLPSFYKIGSKRANFDEENAYFEDEEEDSSNVDLPYIPAENSPTRQQFHSKPADSDSDDDPLEAFMAEVEDQAARDMKRLEEKDKERKNVKGIRDDIEEEDDQEAYFRYMAENPTAGVVQEEEEDNLEYDSDGNPIAPSKKIIDPLPPIDHSEIDYPPFEKNFYNEHEEITNLTPQQLIDLRHKLNLRVSGAAPPRPGSSFAHFGFDEQLMHQIRKSEYTQPTPIQCQGVPVALSGRDMIGIAKTGSGKTAAFIWPMLIHIMDQKELEPGDGPIAVIVCPTRELCQQIHAECKRFGKAYNLRSVAVYGGGSMWEQAKALQEGAEIVVCTPGRLIDHVKKKATNLQRVSYLVFDEADRMFDMGFEYQVRSIASHVRPDRQTLLFSATFRKKIEKLARDILIDPIRVVQGDIGEANEDVTQIVEILHSGPSKWNWLTRRLVEFTSSGSVLLFVTKKANAEELASNLKQEGHNLGLLHGDMDQSERNKVISDFKKKDIPVLVATDVAARGLDIPSIKTVINYDVARDIDTHTHRIGRTGRAGEKGVAYTLLTPKDSNFAGDLVRNLEGANQHVSKELLDLAMQNAWFRKSRFKGGKGKKLNIGGGGLGYRERPGLGSENSDRGNNNNVMSNYEAYKPSTGAMGDRLTAMKAAFQSQYKSHFVAASLSNQKAGTSSAGASGWTSAGSLNSVPTNSAQQGHNSPDNPMTSSTKNIPGFNNSGNISSAPVTYPSIGAQGVNNTASGNNSREGIGGGNGKRERYTENRGGSRHSHGDGGNRHGDGGRHGDGYRYPESGSRHTDGHRHGETRHGGSAGRHGESRGANDGRNGESRKEGFNRENKMDPKVDSSRMDKVDSKTDKTPDGFAVPEPPKRKKSRWDS
As for B1, the binding entry was “binds”.

B2: ARF GTPase-activating protein GIT1 (protein, UniProt Q68FF6 1-770)
chain: MSRKGPRAEVCADCSAPDPGWASISRGVLVCDECCSVHRSLGRHISIVKHLRHSAWPPTLLQMVHTLASNGANSIWEHSLLDPAQVQSGRRKANPQDKVHPIKSEFIRAKYQMLAFVHKLPCRDDDGVTAKDLSKQLHSSVRTGNLETCLRLLSLGAQANFFHPEKGTTPLHVAAKAGQTLQAELLVVYGADPGSPDVNGRTPIDYARQAGHHELAERLVECQYELTDRLAFYLCGRKPDHKNGHYIIPQMADRSRQKCMSQSLDLSELAKAAKKKLQALSNRLFEELAMDVYDEVDRRENDAVWLATQNHSTLVTERSAVPFLPVNPEYSATRNQGRQKLARFNAREFATLIIDILSEAKRRQQGKSLSSPTDNLELSARSQSELDDQHDYDSVASDEDTDQEPLPSAGATRNNRARSMDSSDLSDGAVTLQEYLELKKALATSEAKVQQLMKVNSSLSDELRRLQREIHKLQAENLQLRQPPGPVPPPSLPSERAEHTLMGPGGSTHRRDRQAFSMYEPGSALKPFGGTPGDELATRLQPFHSTELEDDAIYSVHVPAGLYRIRKGVSASSVPFTPSSPLLSCSQEGSRHASKLSRHGSGADSDYENTQSGDPLLGLEGKRFLELSKEDELHPELESLDGDLDPGLPSTEDVILKTEQVTKNIQELLRAAQEFKHDSFVPCSEKIHLAVTEMASLFPKRPALEPVRSSLRLLNASAYRLQSECRKTVPPEPGAPVDFQLLTQQVIQCAYDIAKAAKQLVTITTREKKQ
On to B2, for which the binding entry is “binds”.
